Values from PubChem BioAssay AID652272 (Drosophila RNAi Screening Center, 2013).
Screen: 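Genome-wide knock-down search for components of Hedgehog signalling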 (primary screen). Cell system: Drosophila clone 8 (Cl8) cells. Knock-down reagent: long dsRNA against Drosophila genes. Measurement: 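Firefly light from a Hedgehog-responsive ptc promoter reporter and Renilla reference light, both read on a plate reader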. Direction: firefly Hh reporter signal: higher = more ptc reporter light; Renilla reference signal: higher = more Renilla control light. Rule for the call: 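Called a hit if the two-replicate mean z-score lies below -2 or above +3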. Meaning of the calls: active = hit: reporter lowered or raised; inactive = not a hit.
The deposit covers about 21,000 reagents; below is an unselected part of those that have a named target and a result. Over the whole deposit, 503 (2.4%) are marked active. 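Raw plate light values, not normalised; calls rest on replicate z-scores that were not deposited; hits include reporter decreases as well as increases.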 Entries without a mark were called inactive. A plus sign joins genes that one reagent is predicted to hit. Not given: the amount of reagent, the time to read-out.

| firefly Hh reporter signal, replicate 1 | firefly Hh reporter signal, replicate 2 | firefly Hh reporter signal, replicate 3 | Renilla reference signal, replicate 1 | Renilla reference signal, replicate 2 | Target gene | DRSC id |
| --- | --- | --- | --- | --- | --- | --- |
| 1.16e5 | 71457 | – | 4676 | 1984 | Eps-15 (GeneID 37961) | DRSC04288 |
| 1.03e5 | 65817 | – | 2628 | 2220 | IntS11 (GeneID 43506) | DRSC15407 |
| 1.26e5 | 59031 | – | 5335 | 2454 | CG12035 (GeneID 38217) | DRSC08238 |
| 33594 (active) | 16172 | – | 2042 | 1450 | CycT (GeneID 39961) | DRSC11124 |
| 64229 | 58071 | – | 2858 | 4183 | Cpr62Ba (GeneID 38239) | DRSC08403 |
| 70098 | 43872 | – | 2160 | 1717 | Zn72D (GeneID 39764) | DRSC11318 |
| 41923 | 50000 | – | 4055 | 4011 | CG5087 (GeneID 39035) | DRSC10479 |
| 78139 | 94730 | – | 3660 | 3392 | puc (GeneID 40958) | DRSC17034 |
| 5.24e5 | 72985 | – | 24400 | 2048 | Dhc93AB (GeneID 42485) | DRSC16644 |
| 75264 | 36259 | – | 1782 | 3461 | CG13126 (GeneID 34323) | DRSC02222 |
| 89040 | 73932 | – | 3491 | 3047 | Rnf146 (GeneID 40144) | DRSC11045 |
| 5.71e5 | 2.67e5 | – | 31844 | 5064 | vnd (GeneID 31003) | DRSC17360 |
| 1.11e5 | 4.87e5 | 2.54e5 | 4117 | 3797 | vnd (GeneID 31003) | DRSC18849 |
| 59337 | 78041 | – | 1074 | 2165 | CG43317 (GeneID 41916) | DRSC15000 |
| 56221 | 78374 | – | 2345 | 2393 | CG15177 (GeneID 40810) | DRSC12557 |
| 68880 | 37991 | – | 2779 | 1696 | Pen (GeneID 34338) | DRSC03396 |
| 69334 | 83477 | – | 2669 | 1029 | Trxr2 (GeneID 40475) | DRSC11900 |
| 1.21e5 | 55474 | – | 2589 | 5139 | ppk7 (GeneID 33886) | DRSC03236 |
| 1.42e5 | 57890 | – | 4873 | 4411 | CG12003 (GeneID 38183) | DRSC08214 |
| 82776 | 63800 | – | 2114 | 1495 | frma (GeneID 31464) | DRSC18297 |
| 1.38e5 | 1.42e5 | – | 4213 | 3957 | CG14082 (GeneID 40088) | DRSC10086 |
| 1.28e5 | 90615 | – | 5061 | 3763 | beat-IV (GeneID 42778) | DRSC14195 |
| 5.10e5 | 1.17e5 | – | 28035 | 3860 | beat-IV (GeneID 42778) | DRSC14673 |
| 4.59e5 | 86041 | – | 23835 | 2365 | Nepl16 (GeneID 43014) | DRSC14650 |
| 4.58e5 | 1.05e5 | – | 24185 | 2363 | NP15.6 (GeneID 42282) | DRSC16756 |
| 4.49e5 | 2.00e5 | – | 20674 | 4104 | CG1674 (GeneID 43780) | DRSC17107 |
| 86101 | 1.84e5 | – | 2151 | 7152 | CG1674 (GeneID 43780) | DRSC17142 |
| 64420 | 2.36e5 | – | 1901 | 8561 | baz (GeneID 32703) | DRSC20309 |
| 1.17e5 | 82250 | – | 3052 | 6059 | gcm (GeneID 34277) | DRSC03536 |
| 1.22e5 | 72139 | – | 4674 | 2646 | Sec10 (GeneID 42863) | DRSC17053 |
| 70368 | 73376 | – | 1641 | 1594 | CG15208 (GeneID 32022) | DRSC19654 |
| 86157 | 53287 | – | 2361 | 4584 | CAH15 (GeneID 37366) | DRSC04534 |
| 8.08e5 | 4.32e5 | – | 41304 | 15629 | CG31663 (GeneID 33363) | DRSC00078 |
| 1.46e5 | 1.22e5 | – | 5794 | 4748 | CG31663 (GeneID 33363) | DRSC00389 |
| 5.44e5 | 84467 | – | 3896 | 3896 | CG31663 (GeneID 33363) | DRSC00390 |
| 1.03e5 | 95500 | – | 2236 | 2130 | CG31663 (GeneID 33363) | DRSC00393 |
| 84993 | 97675 | – | 1909 | 2808 | Ibf1 (GeneID 41103) | DRSC16419 |
| 87020 | 2.55e5 | – | 1933 | 10704 | CG17163 (GeneID 3354988) | DRSC20901 |
| 70004 | 1.63e5 | – | 2038 | 7248 | CG11590 (GeneID 32368) | DRSC19411 |
| 1.21e5 | 3.01e5 | – | 4632 | 10592 | ph-p (GeneID 31181) | DRSC18820 |
| 72153 | 50675 | – | 1629 | 4192 | didum (GeneID 35680) | DRSC07603 |
| 72315 | 39773 | – | 1751 | 3529 | CG10621 (GeneID 35152) | DRSC02078 |
| 78483 | 97507 | – | 3221 | 1657 | Jhbp3 (GeneID 40611) | DRSC12247 |
| 1.08e5 | – | – | 4156 | 2880 | Gbs-70E (GeneID 39588) | DRSC11055 |
| 7.34e5 | 2.20e5 | – | 36497 | 4311 | Imp (GeneID 32009) | DRSC18857 |
| 5.99e5 | 1.59e5 | – | 32268 | 3383 | Imp (GeneID 32009) | DRSC18861 |
| 82485 | 74378 | – | 1915 | 1876 | Imp (GeneID 32009) | DRSC20255 |
| 79347 | 95869 | – | 1984 | 2400 | CG42296 (GeneID 53544) | DRSC00394 |
| 80960 | 1.76e5 | – | 2625 | 8112 | CG17571 (GeneID 35409) | DRSC01768 |
| 73718 | 45322 | – | 1941 | 5235 | CG17571 (GeneID 35409) | DRSC03755 |
| 54208 | 1.05e5 | – | 1641 | 2986 | CG6567 + CG4565 | DRSC15599 |
| 93024 | 74944 | – | 3501 | 2578 | TFAM (GeneID 42433) | DRSC15552 |
| 89466 | 71334 | – | 3616 | 3019 | park (GeneID 40336) | DRSC11618 |
| 3.82e5 | 1.69e5 | – | 20512 | 3581 | CG7907 (GeneID 42539) | DRSC16339 |
| 1.11e5 | 57963 | – | 2880 | 5398 | CG4970 (GeneID 3772412) | DRSC02796 |
| 1.12e5 | 1.89e5 | – | 2920 | 5256 | Tim17a2 (GeneID 40632) | DRSC12252 |
| 94956 | 2.80e5 | – | 3956 | 9299 | CG17776 (GeneID 50373) | DRSC18136 |

Part of the list above in another layout:
firefly Hh reporter signal, replicate 1	firefly Hh reporter signal, replicate 2	firefly Hh reporter signal, replicate 3	Renilla reference signal, replicate 1	Renilla reference signal, replicate 2	Target gene	DRSC id
1.21e5	3.01e5		4632	10592	ph-p (GeneID 31181)	DRSC18820
72153	50675		1629	4192	didum (GeneID 35680)	DRSC07603
72315	39773		1751	3529	CG10621 (GeneID 35152)	DRSC02078
78483	97507		3221	1657	Jhbp3 (GeneID 40611)	DRSC12247
1.08e5			4156	2880	Gbs-70E (GeneID 39588)	DRSC11055
7.34e5	2.20e5		36497	4311	Imp (GeneID 32009)	DRSC18857
5.99e5	1.59e5		32268	3383	Imp (GeneID 32009)	DRSC18861
